{
  "source": "patent US11396522B2",
  "about": "“Bis-acetal-based substrates for imaging exo-glycosidase activity” (ALECTOS THERAPEUTICS INC., priority 2017, dated 2022)",
  "data": [
    {"assay": "Fluorescence quenching efficiency of Glyco-BABS versus EDANS", "assay_type": "physicochemical", "conditions": "in PBS, ratio of slopes of fluorescence vs concentration against EDANS", "units": {"quenching efficiency": "%"}, "values": [
      {"smiles": "CC(=O)N[C@H]1[C@H](O[C@@H](OCCOCCn2cc(CNC(=O)c3ccc(/N=N/c4ccc(N(C)C)cc4)cc3)nn2)[C@@](C)(Br)C(=O)NCCNc2cccc3c(S(=O)(=O)O)cccc23)O[C@H](CO)[C@@H](O)[C@@H]1O", "note": "[Compound 1, 5-((2-((2R,3R)-3-(((2S,3R,4R,5S,6R)-3-acetamido-4,5-dihydroxy-6-(hydroxymethyl)tetrahydro-2H-pyran-2-yl)oxy)-2-bromo-3-(2-(2-(4-((4-((E)-(4-(dimethylamino)phenyl)diazenyl)benzamido)methyl)-1H-1,2,3-triazol-1-yl)ethoxy)ethoxy)-2-methylpropanamido)ethyl)amino)naphthalene-1-sulfonic Acid]", "quenching efficiency": 99.93},
      {"smiles": "CN(C)c1ccc(/N=N/c2ccc(C(=O)NCc3cn(CCOCCO[C@H](O[C@@H]4O[C@H](CO)[C@@H](O)[C@H](O)[C@H]4O)[C@@](C)(O)C(=O)NCCNc4cccc5c(S(=O)(=O)O)cccc45)nn3)cc2)cc1", "note": "[Compound 6, 5-((2-((2R,3R)-3-(2-(2-(4-((4-((E)-(4-(dimethylamino)phenyl)diazenyl)benzamido)methyl)-1H-1,2,3-triazol-1-yl)ethoxy)ethoxy)-2-hydroxy-2-methyl-3-(((2S,3R,4S,5S,6R)-3,4,5-trihydroxy-6-(hydroxymethyl)tetrahydro-2H-pyran-2-yl)oxy)propanamido)ethyl)amino)naphthalene-1-sulfonic Acid]", "quenching efficiency": 99.95},
      {"smiles": "CC(=O)N[C@H]1[C@H](O[C@@H](OCCOCCn2cc(CNC(=O)c3ccc(/N=N/c4ccc(N(C)C)cc4)cc3)nn2)[C@@](C)(O)C(=O)NCCNc2cccc3c(S(=O)(=O)O)cccc23)O[C@H](CO)[C@@H](O)[C@@H]1O", "note": "[Compound 2, 5-((2-((2R,3R)-3-(((2S,3R,4R,5S,6R)-3-acetamido-4,5-dihydroxy-6-(hydroxymethyl)tetrahydro-2H-pyran-2-yl)oxy)-3-(2-(2-(4-((4-((E)-(4-(dimethylamino)phenyl)diazenyl)benzamido)methyl)-1H-1,2,3-triazol-1-yl)ethoxy)ethoxy)-2-hydroxy-2-methylpropanamido)ethyl)amino)naphthalene-1-sulfonic Acid]", "quenching efficiency": 99.89},
      {"smiles": "CN(C)c1ccc(/N=N/c2ccc(C(=O)NCc3cn(CCOCCOC(CC(=O)NCCNc4cccc5c(S(=O)(=O)O)cccc45)O[C@@H]4O[C@H](CO)[C@@H](O)[C@H](O)[C@H]4O)nn3)cc2)cc1", "note": "(stereo partly drawn) [Compound 7, 5-((2-(3-(2-(2-(4-((4-((E)-(4-(dimethylamino)phenyl)diazenyl)benzamido)methyl)-1H-1,2,3-triazol-1-yl)ethoxy)ethoxy)-3-(((2S,3R,4S,5S,6R)-3,4,5-trihydroxy-6-(hydroxymethyl)tetrahydro-2H-pyran-2-yl)oxy)propanamido)ethyl)amino)naphthalene-1-sulfonic Acid]", "quenching efficiency": 99.87}
    ]}
  ]
}
